What all share (format): functional, organism-based
In experiment [1] the test system is Plasmodium falciparum. Put plainly: Antimalarial activity after 72 hrs against chloroquine-sensitive Plasmodium falciparum D10 infected human A+ erythrocytes in Makler LDH reporter assay. To be noted: D10, 72 h. On the technique in general: Reporter assays use an easily measured gene product as a stand-in for the process of interest.
In experiment [2] the test system is Plasmodium falciparum. The experiment can be described thus: Antimalarial activity after 72 hrs against chloroquine-resistant Plasmodium falciparum W2 infected human A+ erythrocytes by Makler LDH reporter assay. To be noted: W2, 72 h.
Experiment [3] concerns Plasmodium falciparum. The experiment can be described thus: Antimalarial activity after 24 hrs against chloroquine-resistant synchronous Plasmodium falciparum K1 infected human A+ erythrocytes by [3H]hypoxanthine uptake.

Molecules are shown by their SMILES.

The IC50 is the concentration at which inhibition is half-maximal. Low readings indicate greater potency, high ones weaker potency. For `Clc1ccccc1C(c1ccccc1)(c1ccccc1)n1ccnc1` [CLOTRIMAZOLE], the IC50 was 550 nM with Plasmodium falciparum [1], 490 nM with Plasmodium falciparum [2] and 250 nM in the experiment on Plasmodium falciparum [3].

The record behind these values is ChEMBL document CHEMBL1139381 (J Med Chem, 2009).
